## Results of single-concentration screens

By UniProt entry, the sequences of proteins in these tests, tags left out.
UniProt P9WFT3, whole entry: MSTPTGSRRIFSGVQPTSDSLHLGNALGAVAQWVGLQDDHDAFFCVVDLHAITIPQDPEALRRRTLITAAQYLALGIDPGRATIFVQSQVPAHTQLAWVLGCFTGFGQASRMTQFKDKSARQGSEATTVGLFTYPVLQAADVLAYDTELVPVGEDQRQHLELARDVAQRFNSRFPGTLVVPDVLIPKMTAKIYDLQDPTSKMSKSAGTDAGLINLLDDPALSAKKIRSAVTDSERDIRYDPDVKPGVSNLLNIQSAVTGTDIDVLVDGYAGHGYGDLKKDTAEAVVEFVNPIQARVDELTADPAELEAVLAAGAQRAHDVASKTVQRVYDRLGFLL
UniProt P9WNZ1, whole entry: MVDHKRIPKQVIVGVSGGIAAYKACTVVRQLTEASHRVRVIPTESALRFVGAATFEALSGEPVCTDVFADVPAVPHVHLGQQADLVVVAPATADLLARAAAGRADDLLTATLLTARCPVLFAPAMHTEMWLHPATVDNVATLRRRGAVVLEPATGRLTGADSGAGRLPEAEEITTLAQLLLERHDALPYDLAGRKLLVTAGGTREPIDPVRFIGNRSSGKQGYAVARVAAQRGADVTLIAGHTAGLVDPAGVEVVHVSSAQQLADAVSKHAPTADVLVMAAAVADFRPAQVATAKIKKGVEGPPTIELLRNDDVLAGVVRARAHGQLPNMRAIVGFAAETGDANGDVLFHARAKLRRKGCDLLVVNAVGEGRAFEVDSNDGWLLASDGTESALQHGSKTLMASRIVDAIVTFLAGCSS
UniProt P9WPC5, whole entry: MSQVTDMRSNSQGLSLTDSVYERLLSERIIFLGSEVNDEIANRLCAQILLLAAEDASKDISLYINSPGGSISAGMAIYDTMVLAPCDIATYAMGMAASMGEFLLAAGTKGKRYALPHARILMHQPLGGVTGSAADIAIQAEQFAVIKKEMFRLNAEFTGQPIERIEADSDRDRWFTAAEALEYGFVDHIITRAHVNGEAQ
UniProt P9WPC3, whole entry partner: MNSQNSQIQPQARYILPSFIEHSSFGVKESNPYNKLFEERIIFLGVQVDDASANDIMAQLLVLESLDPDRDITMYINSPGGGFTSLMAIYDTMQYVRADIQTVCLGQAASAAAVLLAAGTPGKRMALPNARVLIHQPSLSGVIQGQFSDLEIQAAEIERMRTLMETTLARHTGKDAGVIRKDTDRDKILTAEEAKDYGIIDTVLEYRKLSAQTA

Measurements from “University of Dundee, Small-Polar-MMV Screening Library” (2021), ChEMBL document CHEMBL3988442.

A: 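Enzyme assay of tryptophanyl-tRNA synthetase; the read-out is not stated. Target: Tryptophan-tRNA ligase, Mycobacterium tuberculosis (UniProt P9WFT3). Concentration: 10 µM. Direction is not recorded; retested compounds ran higher, which suggests that high means inhibition. Of about 65,000 compounds tested this way, about 64 (0.098%) reached 50% or more in at least one test.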
B: 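Enzyme assay of CoaBC with a phosphate dye (Biomol Green) read at 650 nm. Target: Coenzyme A biosynthesis protein CoaBC, Mycobacterium tuberculosis (UniProt P9WNZ1). Concentration: 30 µM. Higher reads as stronger inhibition, judged from the few compounds that gave an IC50. Most strong results did not repeat in a second test. Of about 67,000 compounds tested this way, about 40 (0.06%) reached 50% or more in at least one test.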
C: 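Protease assay of ClpP1P2, read by the AMC dye that it sets free. Target: ClpP1P2, Mycobacterium tuberculosis (UniProt P9WPC5 and UniProt P9WPC3). Concentration: 50 µM. Direction is inferred from only a few compounds that gave an IC50; most scored high, so higher reads as stronger inhibition. Most other retested compounds had strongly negative values. Size under these conditions: about 69,000 compounds, about 10 of them at 50% or above in at least one test.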

Values are the deposited “Percent Effect”, in %.
The controls that fix the scale are not given in the record; negative values are as filed.
Compounds were drawn at random from those tested, without regard to their results.
Two or more numbers in one place are separate tests of the same structure; such repeats can differ widely.
A dash means the value is not listed here; it may have been measured.

SMILES,A,B,C
CCOCC1CN(Cc2ccoc2)Cc2nn(CC3CC3)cc21 (stereo not given),0,5.59,-5.276
Cc1noc(C)c1-c1cncc(C2CCCN2Cc2c[nH]cn2)n1 (stereo not given),-,1.115,-11.92
CC1CCN(c2nc(O)cc(C3CC(=O)N(C4CCCCC4)C3)n2)CC1 (stereo not given),-1.302,17.01 & 21.05,-8.402
c1ccc(CCCN2CCCN(c3ncnc4[nH]ccc34)CC2)cc1,0.618,7.663,-4.381
Cc1ccc(OCCCNC(=O)CN(C)c2ccc(C#N)cn2)cc1,1.039,5.725,-8
CCC(C)(CC(=O)OC)NCc1cc(C)on1 (stereo not given),0.2467,-0.6135,-5.516
CC(C)c1nc(CN2CCC(c3ccnn3CCO)CC2)no1,61.52,-1.136,-18.13
CCOCCn1c(=O)[nH]c2cc(C(=O)N(C)CCc3cn[nH]c3)ccc21,5.186,8.742,-2.995
CC(=O)N(C)C(c1cccnc1)c1ccc(F)c(F)c1 (stereo not given),3.565,1.935,10.87
CS(=O)(=O)c1ccccc1NC(=O)N[C@@H]1c2ccccc2C[C@@H]1O,1.38,5.596,-3.283
O=c1[nH]nc(CNCc2ccc(OC34CCCN(CC3)C4)cc2)[nH]1 (stereo not given),0,-15.53,-3.896
CC[C@H](C)[C@H](N)C(=O)N1CC(=O)c2sc(NC3CCCCC3)nc2C1,-,0.8434,11.46
Cc1nc(C)n(C2CCCN(C(=O)CCc3cscn3)C2)n1 (stereo not given),-0.581,0,-16.31
CN(C)C(=O)COCC1CN(C2CCC2)Cc2ncn(C)c21 (stereo not given),5.535,-3.951,-13.15
O=C([C@H]1C[C@H]2OCC[C@H]2N(CCc2ccccc2)C1)N1CCCCO1,-1.308,6.941,0.044
CC1CCN(C(=O)c2cn(-c3ccc(C(F)(F)F)cn3)nn2)CC1,-5.094,3.629,-3.404
CCC(=O)N1CCN(Cc2cc(-c3ccncc3)nn2C)CC1,-1.589,0.8333,-1.356
COc1ccc(CN2CC[C@@]3(O)CCCC[C@H]3C2)cc1C(=O)O,-0.07262,-0.2433,9.391
CCOCc1ccccc1NC(=O)NC1CCN(c2ncccn2)CC1,-6.425,3.421,-5.894
O=C(c1ccc(N2CCCC2)nn1)N1CCc2ccccc21,-2.812,-1.903,9.547
Cc1cc(C)cc(OCCN(C)Cc2cscn2)c1,-5.5,-3.74,-3.897
O=C(c1cc(-c2cccs2)on1)N1CCCCC1Cn1cccn1 (stereo not given),-5.356,-4.215,-23.87
CC(=O)N1CC[C@H](c2nnc(Cc3c[nH]c4ccccc34)o2)C1,1.754,-6.09,-7.943
Cc1ccc(CN2CCC(F)(F)C3(CCN(c4cnccn4)C3)C2)o1 (stereo not given),2.814,-8.075,-5.879
CCn1nc(C)c(CNC(=O)c2nnc3ccccc3n2)c1C,-0.1273,3.827,-3.905
O=C(O)CCC(=O)Nc1nn(Cc2ccc(F)cc2)cc1Cl,3.614,-0.7009,-8.62
COc1ccc2cc(C3CN(C(=O)C4CCOCC4)CCO3)ccc2c1 (stereo not given),-1.935,0.6397,-3.456
Cc1ccc2c(n1)N(Cc1csc(C)n1)CCN(C1CCOC1)C2 (stereo not given),-1.833,6.105,-3.113
O=C1CC(N(C(=O)c2ccc(Oc3ccccc3)cc2)C2CC2)C(=O)N1 (stereo not given),0.5452,6.329,-14.7
CCn1cc(CN2CCCC3(CCC(=O)N(CCC(C)C)C3)C2)cn1 (stereo not given),0.3749,-6.725,-1.024
CSCC(=O)N(Cc1ccccn1)Cc1ccccc1C,-0.3673,1.814,-5.701
CNc1cncc(C2CCCN2Cc2cccc(C)n2)n1 (stereo not given),-,4.126,-23.29
O=C(CCNS(=O)(=O)c1ccc(F)cc1)NCc1ccoc1,-3.693,-4.959,8.647
Cc1csc(CNCC(C)c2nc3ccccc3o2)n1 (stereo not given),4.748,-2.724,-5.383
CN(CCn1cccn1)S(=O)(=O)c1cccc(F)c1C#N,1.556,6.483,0.4537
Oc1cccc(CN2C[C@H]3CC[C@@H]2CN(Cc2ccncc2)C3)c1,-2.804,-40.19,-6.519
OCC(CO)N1CCC(c2nccnc2Nc2cnccn2)CC1,-5.095,8.789,-12.45
CSc1sc(NC(=O)C2CCCN(C(N)=O)C2)nc1C (stereo not given),4.956,-5.952,-4.059
O=C(COCC(F)(F)F)Nc1nncs1,8.817,2.161,10.86